# Results from PubChem BioAssay AID270 (DTP/NCI, 2004).
# The list shows only some results of the screen, not a fair sample: it is rich in T/C values a quarter to a half above the control, in often repeated tests (any T/C) and in doses without a T/C. Further doses and runs are listed elsewhere. T/C: endpoint of the treated group in % of that of the vehicle group. Schedule codes are those of the source, read here as Q, the interval in days (D) or hours (H), X, the number of doses. Some entries give survivors of the animals treated and no T/C: the source files T/C as zero there, which appears to mark a toxic dose or a test without result, not a measured value. Counts of survivors are from the toxicity check (mostly the fifth day) where no day follows; animals may have died later. Some doses were run more than once; the results are listed from low to high.
# Tested on: BDF1 mice, s.c. Lewis lung carcinoma, T/C %
# Test: NCI In Vivo Anticancer Drug Screen. Data for tumor model Lewis Lung Carcinoma (subcutaneous) in B6D2F1 (BDF1) mice
# Details: higher T/C = larger tumour; for T/C: evaluated on day 12
# Summary of the method: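 Tumor-bearing mice were treated with test compound, and either survival or tumor size was recorded. Values are the treated-group measurement divided by that of the vehicle-treated control group.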
smiles,measurement,setting,value
N#Cc1ccc(NC(=O)N(CCCl)N=O)cc1,survivor count,"T/C endpoint: median tumor weight (est.), dose: 67.0 mg/kg/injection, schedule: Q01DX001 (ip), vehicle: Klucel (hydroxypropylcellulose) (HPC)",2 of 10 on day 14
same,survivor count,"T/C endpoint: median tumor weight (est.), dose: 100.0 mg/kg/injection, schedule: Q01DX001 (ip), vehicle: Klucel (hydroxypropylcellulose) (HPC)",0 of 10 on day 14 and 6 of 10 on day 13
same,survivor count,"T/C endpoint: median tumor weight (est.), dose: 150.0 mg/kg/injection, schedule: Q01DX001 (ip), vehicle: Klucel (hydroxypropylcellulose) (HPC)",0 of 10 on day 14
same,survivor count,"T/C endpoint: median tumor weight (est.), dose: 225.0 mg/kg/injection, schedule: Q01DX001 (ip), vehicle: Klucel (hydroxypropylcellulose) (HPC)",0 of 10 on day 14
same,survivor count,"T/C endpoint: median tumor weight (est.), dose: 338.0 mg/kg/injection, schedule: Q01DX001 (ip), vehicle: Klucel (hydroxypropylcellulose) (HPC)",0 of 10 on day 14
same,survivor count,"T/C endpoint: median tumor weight (est.), dose: 507.0 mg/kg/injection, schedule: Q01DX001 (ip), vehicle: Klucel (hydroxypropylcellulose) (HPC)",0 of 10 on day 14
CO[C@@H]1[C@@H](OC2OC(C)C(OC3CC(C)(O)C(OC(=O)CC(C)C)C(C)O3)C(N(C)C)C2O)[C@@H](CC=O)C[C@@H](C)C(=O)/C=C/C2O[C@H]2C[C@@H](C)OC(=O)C[C@H]1OC(C)=O (some centres not stated),survivor count,"T/C endpoint: mean tumor weight, dose: 600.0 mg/kg/injection, schedule: Q01DX011 (ip), vehicle: saline",3 of 6
CS(=O)(=O)OCC(O)C(O)C(O)C(O)COS(C)(=O)=O (configuration not stated),T/C,"T/C endpoint: mean tumor weight, dose: 25.0 mg/kg/injection, schedule: Q01DX011 (ip), vehicle: saline",125 % of control
CC(=O)O[C@@H]1[C@H]2O[C@H]2[C@H]2O[C@@]2(COC(=O)c2ccccc2)[C@H]1OC(C)=O,T/C,"T/C endpoint: mean tumor weight, dose: 250.0 mg/kg/injection, schedule: Q01DX011 (ip), vehicle: carboxymethylcellulose (CMC)",142 % of control
same,T/C,"T/C endpoint: mean tumor weight, dose: 400.0 mg/kg/injection, schedule: Q01DX011 (ip), vehicle: carboxymethylcellulose (CMC)",142 % of control
same,survivor count,"T/C endpoint: mean tumor weight, dose: 500.0 mg/kg/injection, schedule: Q01DX011 (ip), vehicle: carboxymethylcellulose (CMC)",2 of 4
CCC(=O)NC1=C(N2CC2)C(=O)C(NC(=O)CC)=C(N2CC2)C1=O,survivor count,"T/C endpoint: mean tumor weight, dose: 9.0 mg/kg/injection, schedule: Q01DX011 (ip), vehicle: other",0 of 6
